No constants are given. Whether binding was seen depends on the method and setting. In cells and extracts the contact can be indirect. Some results given as binding are weak or reduced against the parent protein; the word gives no strength.
How the values were obtained:
[1] = molecular target: GFP-SopA (S. Typhimurium SL1344) (UniProt Q8ZNR3); experiment: co-IP
[2] = molecular target: SopA–HA (S. Typhimurium SL1344) (UniProt Q8ZNR3); experiment: co-IP

Sequences of proteins named here, by UniProt entry; tags and fusion partners are left off.
UniProt Q8ZNR3: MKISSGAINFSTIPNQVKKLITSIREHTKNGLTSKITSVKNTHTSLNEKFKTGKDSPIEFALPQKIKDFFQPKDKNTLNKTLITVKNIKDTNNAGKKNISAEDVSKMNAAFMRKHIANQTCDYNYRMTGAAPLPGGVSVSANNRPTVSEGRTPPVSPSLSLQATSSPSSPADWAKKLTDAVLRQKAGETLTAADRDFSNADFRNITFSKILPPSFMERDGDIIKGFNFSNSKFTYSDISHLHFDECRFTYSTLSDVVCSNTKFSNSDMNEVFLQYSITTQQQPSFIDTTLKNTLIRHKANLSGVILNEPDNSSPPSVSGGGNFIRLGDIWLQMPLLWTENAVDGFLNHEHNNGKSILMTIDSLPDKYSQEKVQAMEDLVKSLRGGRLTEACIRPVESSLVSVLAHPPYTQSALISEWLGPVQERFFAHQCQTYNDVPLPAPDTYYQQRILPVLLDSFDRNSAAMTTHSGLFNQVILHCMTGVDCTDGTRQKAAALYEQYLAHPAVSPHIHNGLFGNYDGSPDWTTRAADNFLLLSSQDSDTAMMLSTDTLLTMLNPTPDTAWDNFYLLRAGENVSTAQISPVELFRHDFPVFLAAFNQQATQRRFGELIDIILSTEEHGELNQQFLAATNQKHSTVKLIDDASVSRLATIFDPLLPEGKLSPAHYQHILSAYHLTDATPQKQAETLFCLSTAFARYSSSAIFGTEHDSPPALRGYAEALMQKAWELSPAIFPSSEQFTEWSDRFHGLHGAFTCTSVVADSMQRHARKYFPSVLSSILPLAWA

Row | Binder | binding [1] | binding [2]
1 | MBP-TRIM56 (natural protein, human, UniProt Q9BRZ2 1-755, looked up, TRIM56, human, full length, in pMAL-C2X; also called recombinant TRIM56; not shown: MBP, N-terminal, kept) MVSHGSSPSLLEALSSDFLACKICLEQLRAPKTLPCLHTYCQDCLAQLADGGRVRCPECRETVPVPPEGVASFKTNFFVNGLLDLVKARACGDLRAGKPACALCPLVGGTSTGGPATARCLDCADDLCQACADGHRCTRQTHTHRVVDLVGYRAGWYDEEARERQAAQCPQHPGEALRFLCQPCSQLLCRECRLDPHLDHPCLPLAEAVRARRPGLEGLLAGVDNNLVELEAARRVEKEALARLREQAARVGTQVEEAAEGVLRALLAQKQEVLGQLRAHVEAAEEAARERLAELEGREQVARAAAAFARRVLSLGREAEILSLEGAIAQRLRQLQGCPWAPGPAPCLLPQLELHPGLLDKNCHLLRLSFEEQQPQKDGGKDGAGTQGGEESQSRREDEPKTERQGGVQPQAGDGAQTPKEEKAQTTREEGAQTLEEDRAQTPHEDGGPQPHRGGRPNKKKKFKGRLKSISREPSPALGPNLDGSGLLPRPIFYCSFPTRMPGDKRSPRITGLCPFGPREILVADEQNRALKRFSLNGDYKGTVPVPEGCSPCSVAALQSAVAFSASARLYLINPNGEVQWRRALSLSQASHAVAALPSGDRVAVSVAGHVEVYNMEGSLATRFIPGGKASRGLRALVFLTTSPQGHFVGSDWQQNSVVICDGLGQVVGEYKGPGLHGCQPGSVSVDKKGYIFLTLREVNKVVILDPKGSLLGDFLTAYHGLEKPRVTTMVDGRYLVVSLSNGTIHIFRVRSPDS | binds | binds
2 | endogenous TRIM65 (protein, UniProt Q6PJ69 1-517) MAAQLLEEKLTCAICLGLYQDPVTLPCGHNFCGACIRDWWDRCGKACPECREPFPDGAELRRNVALSGVLEVVRAGPARDPGPDPGPGPDPAARCPRHGRPLELFCRTEGRCVCSVCTVRECRLHERALLDAERLKREAQLRASLEVTQQQATQAEGQLLELRKQSSQIQNSACILASWVSGKFSSLLQALEIQHTTALRSIEVAKTQALAQARDEEQRLRVHLEAVARHGCRIRELLEQVDEQTFLQESQLLQPPGPLGPLTPLQWDEDQQLGDLKQLLSRLCGLLLEEGSHPGAPAKPVDLAPVEAPGPLAPVPSTVCPLRRKLWQNYRNLTFDPVSANRHFYLSRQDQQVKHCRQSRGPGGPGSFELWQVQCAQSFQAGHHYWEVRASDHSVTLGVSYPQLPRCRLGPHTDNIGRGPCSWGLCVQEDSLQAWHNGEAQRLPGVSGRLLGMDLDLASGCLTFYSLEPQTQPLYTFHALFNQPLTPVFWLLEGRTLTLCHQPGAVFPLGPQEEVLS | binds | 

Reference: PMC5241803, “Structural basis for the recognition and degradation of host TRIM proteins by Salmonella effector SopA” (Nature Communications, 2017)
